Data as given in ChEMBL document CHEMBL1275536, “Efficacy of single-dose liposomal amphotericin B or micafungin prophylaxis in a neutropenic murine model of invasive pulmonary aspergillosis” (2008).
Converted amounts (≈) assume the structure as drawn.

System: Aspergillus fumigatus
Experiment: Antifungal activity against Aspergillus fumigatus 293 by Etest
Assay type: functional
Procedure, shortened: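 Susceptibility of A. fumigatus 293 by Etest. Amphotericin B read as MIC; micafungin read as minimum effective concentration.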

Compound `C[C@@H]1[C@H](O)[C@@H](C)/C=C/C=C/C=C/C=C/C=C/C=C/C=C/[C@H](O[C@@H]2O[C@H](C)[C@@H](O)[C@H](N)[C@@H]2O)C[C@@H]2O[C@](O)(C[C@@H](O)C[C@@H](O)[C@H](O)CC[C@@H](O)C[C@@H](O)CC(=O)O[C@H]1C)C[C@H](O)[C@H]2C(=O)O` [AMPHOTERICIN B] has an MIC of 0.25 µg/mL (≈ 0.271 µM).
